# Measurements taken from PubChem BioAssay (EPA / NIEHS).
# Sequences of proteins named here, by UniProt entry; tags and fusion partners are left off. A change or cut given only in a name is not applied to a line headed by its entry.
# UniProt P57717: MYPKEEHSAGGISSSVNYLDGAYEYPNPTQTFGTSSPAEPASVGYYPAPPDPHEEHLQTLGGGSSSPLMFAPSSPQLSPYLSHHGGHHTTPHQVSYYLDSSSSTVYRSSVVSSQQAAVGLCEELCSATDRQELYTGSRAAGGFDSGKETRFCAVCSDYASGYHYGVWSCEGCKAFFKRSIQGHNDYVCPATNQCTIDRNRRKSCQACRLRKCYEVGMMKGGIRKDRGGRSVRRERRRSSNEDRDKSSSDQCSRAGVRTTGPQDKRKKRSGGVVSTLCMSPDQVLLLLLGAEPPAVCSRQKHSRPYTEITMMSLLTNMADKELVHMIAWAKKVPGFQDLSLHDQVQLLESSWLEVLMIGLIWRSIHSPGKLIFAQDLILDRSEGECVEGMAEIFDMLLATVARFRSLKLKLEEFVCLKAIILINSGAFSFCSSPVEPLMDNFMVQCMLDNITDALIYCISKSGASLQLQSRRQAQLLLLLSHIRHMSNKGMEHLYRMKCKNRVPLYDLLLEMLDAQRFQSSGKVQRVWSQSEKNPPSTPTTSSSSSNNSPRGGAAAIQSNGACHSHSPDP
# UniProt P06212, whole entry, looked up: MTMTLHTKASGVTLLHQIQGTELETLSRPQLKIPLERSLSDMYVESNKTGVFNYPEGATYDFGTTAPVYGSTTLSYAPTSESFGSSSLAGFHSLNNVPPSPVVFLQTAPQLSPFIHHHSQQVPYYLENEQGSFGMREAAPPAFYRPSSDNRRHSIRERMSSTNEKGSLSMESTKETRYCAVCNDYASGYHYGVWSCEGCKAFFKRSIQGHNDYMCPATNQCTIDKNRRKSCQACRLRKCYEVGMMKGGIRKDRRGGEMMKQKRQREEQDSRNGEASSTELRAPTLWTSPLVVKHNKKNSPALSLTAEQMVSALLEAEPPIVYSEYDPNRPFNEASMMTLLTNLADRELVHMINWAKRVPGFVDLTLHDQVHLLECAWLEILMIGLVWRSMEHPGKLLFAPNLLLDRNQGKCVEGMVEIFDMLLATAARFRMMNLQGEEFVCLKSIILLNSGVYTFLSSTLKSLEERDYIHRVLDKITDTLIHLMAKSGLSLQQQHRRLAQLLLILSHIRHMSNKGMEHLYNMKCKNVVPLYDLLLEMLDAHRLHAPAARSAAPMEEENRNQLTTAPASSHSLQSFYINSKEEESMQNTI
# UniProt P03372, whole entry, looked up: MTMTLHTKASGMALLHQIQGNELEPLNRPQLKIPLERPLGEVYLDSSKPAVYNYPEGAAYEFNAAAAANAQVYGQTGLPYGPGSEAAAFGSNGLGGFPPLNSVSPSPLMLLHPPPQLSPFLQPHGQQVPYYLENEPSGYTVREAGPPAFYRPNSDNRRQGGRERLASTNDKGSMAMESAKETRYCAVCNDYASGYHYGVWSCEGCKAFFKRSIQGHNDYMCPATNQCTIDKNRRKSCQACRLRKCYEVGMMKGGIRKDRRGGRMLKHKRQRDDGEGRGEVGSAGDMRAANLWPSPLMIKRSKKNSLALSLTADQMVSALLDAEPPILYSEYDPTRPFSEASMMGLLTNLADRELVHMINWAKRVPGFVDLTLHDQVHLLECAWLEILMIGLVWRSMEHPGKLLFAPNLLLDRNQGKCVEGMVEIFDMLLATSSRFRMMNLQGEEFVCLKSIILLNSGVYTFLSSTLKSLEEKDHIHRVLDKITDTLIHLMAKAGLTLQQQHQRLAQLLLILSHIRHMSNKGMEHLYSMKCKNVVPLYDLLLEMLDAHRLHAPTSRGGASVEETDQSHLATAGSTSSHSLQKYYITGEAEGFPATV
# “And” between values parts separate entries of the source, which are not always exact repeats. Identical values can stand only once. The inconclusive results got no clear call from the source; some entries with a clear call stand among them for comparison. For part of these data: Potencies of inconclusive entries are doubtful fits and often do not repeat. A structure can be active in one record and inactive in another. The source made the active and inactive calls. Rule for the calls: active = hit-call score of the fitted dose curve at least 0.9, where 1 is the maximum; inconclusive = response in the unintended direction; inactive = score below 0.9.
# Columns and labels:
# [1] = ACEA_AR_agonist_AUC_viability: ACEA Biosciences xCELLigence Real-Time Cell Analysis on Androgen Receptor Agonism for Viability (AID 2283775);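 for AC50: viability read 80 hours after compound addition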
# Procedure, shortened: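 Read-out is area under the impedance curve at 80 h post-dose in 22Rv1 cells, with DMSO as baseline and signal loss taken as reduced viability. Compounds ran in duplicate from 100 uM final.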
# [2] = tested on: zebrafish Androgen Receptor (AR), gene 100005148; assay: ATG_zfAR_XSP1: Attagene TRANS-FACTORIAL Multi-Species (XSP1) HepG2 Assay for zebrafish Androgen Receptor (AR) (AID 2283771)
# Procedure, shortened: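 HepG2 cells were transiently transfected with a zebrafish AR-GAL4 reporter system and partially stimulated with 3 nM 6-alpha-fluorotestosterone. Reporter mRNA was measured after 24 h dosing by RT-PCR with capillary electrophoresis, and gain-of-signal was fitted relative to DMSO.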
# [3] = target: zebrafish Estrogen Receptor (ESR1), esr1 (gene 259252) (UniProt P57717); assay: ATG_zfER1_XSP1: Attagene TRANS-FACTORIAL Multi-Species (XSP1) HepG2 Assay for zebrafish Estrogen Receptor (ESR1) (AID 2283772)
# Procedure, shortened: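 Reporter mRNA induction, gauged via RT-PCR/capillary electrophoresis fluorescence relative to DMSO controls, in HepG2 cells transiently carrying GAL4-UAS reporter units; 24 h dosing.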
# [4] = tested on: frog Estrogen Receptor (ESR1), gene 398734; assay: ATG_frER1_XSP1: Attagene TRANS-FACTORIAL Multi-Species (XSP1) HepG2 Assay for frog Estrogen Receptor (ESR1) (AID 2283777)
# Procedure, shortened: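 Read-out: fluorescent reporter mRNA via RT-PCR, HpaI digestion and capillary electrophoresis, after 24 h chemical exposure of transiently transfected human HepG2 cells expressing exogenous NR-Gal4 chimeras. DMSO served as baseline for positive-direction fitting.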
# [5] = tested on: zebrafish Estrogen Receptor (ESR2A), gene 317734; assay: ATG_zfER2a_XSP1: Attagene TRANS-FACTORIAL Multi-Species (XSP1) HepG2 Assay for zebrafish Estrogen Receptor (ESR2A) (AID 2283778)
# Procedure, shortened: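 HepG2 cells transiently transfected with multiplexed GAL4-UAS reporter units and chimeric NR-GAL4 receptors; 24 h compound exposure with 3 nM 6-alpha-fluorotestosterone present. Reporter mRNA quantified by RT-PCR and capillary electrophoresis, gain-of-signal fitted relative to DMSO.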
# [6] = target: chicken Estrogen Receptor (ESR1), ESR1 (gene 396099) (UniProt P06212); assay: ATG_chERa_XSP1: Attagene TRANS-FACTORIAL Multi-Species (XSP1) HepG2 Assay for chicken Estrogen Receptor (ESR1) (AID 2283779)
# Method: ATG_XSP1_multi-species_TRANS is a cell-based, multiplexed assay created by modifying the existing Attagene TRANS-FACTORIAL system to include a panel of nuclear receptors from some or all the following species: human (Homo sapiens), mouse (Mus musculus), frog (Xenopus laevis), zebrafish (Danio rerio), chicken (Gallus gallus), and turtle (Chrysemys picta). The ECOTOX-FACTORIAL format uses HepG2, a human liver cell line, with measurements taken at 24 hours after chemical dosing in a 24-well plate. Xsp1 included 3 nM 6-alpha-fluorotestosterone to partially stimulate the androgen receptor.ATG_chERa_XSP1 is one of 29 assay components measured or calculated from the ATG_XSP1_multi-species_TRANS assay. It is designed to make measurements of mRNA induction, a form of inducible reporter, as detected with fluorescence intensity signals by Reverse transcription polymerase chain reaction (RT-PCR) and Capillary electrophoresis technology.The assay endpoint ATG_chERa_XSP1 was analyzed in the positive analysis fitting direction relative to DMSO as the negative control and baseline of activity. Using a type of inducible reporter, measures of mRNA for gain-of-signal activity can be used to understand the reporter gene at the transcription factor-level as they relate to the gene ER. Furthermore, this assay endpoint can be referred to as a primary readout, because this assay has produced multiple assay endpoints where this one serves a reporter gene function. To generalize the intended target to other relatable targets, this assay endpoint is annotated to the nuclear receptor intended target family, where the subfamily is steroidal.
# Human liver HepG2 cells are transiently transfected with multiple reporter transcription units (MRTUs) in 6-well plates using FuGene 6 reagent (Roche; 3 ml FuGene/1 mg DNA). The MRTU constructs are regulated by a cis-regulating element (promoter). […] A major difference between the CIS and TRANS system is that in CIS activities of endogenous TFs are measured, whereas the TRANS assay evaluates changes in activities of exogenous, chimeric NR-Gal4 proteins. […] At the end of 24 hour incubation, total RNA was isolated using TriZol reagent (Invitrogen). The isolated RNA is then reverse-transcribed using oligo(dT) primer and Mo-MLV reverse transcriptase (Invitrogen) with DNAse I (Ambion) treatment for 30 min. The one-tenth of the produced cDNA was amplified by PCR using Taq DNA polymerase (Invitrogen) and two reporter sequence-specific primers. The PCR products were fluorescently labeled by primer extension with 6-arboxyfluorescein (6-FAM) 5'-labeled reporter sequence-specific primer (2 min at 95 C, 20 s at 68 C and 10 min at 72 C) and these products were digested with 5U of HpaI (New England Biolabs) for 2h at 37 C. The fragments were purified using Qiaquick PCR columns (Qiagen), analyzed on an ABI 3130xL genetic analyzer (Applied Biosystems) with peak positions identified by using a set of X-rhodamine (ROX)-labeled MapMarker1000 molecular weight standards (BioVentures). The raw capillary electrophoresis data was processed using Attagraph software (Attagene).
# [7] = tested on: frog Estrogen Receptor (ESR2), gene 100174814; assay: ATG_frER2_XSP1: Attagene TRANS-FACTORIAL Multi-Species (XSP1) HepG2 Assay for frog Estrogen Receptor (ESR2) (AID 2283774)
# Procedure, shortened: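 HepG2 cells transiently transfected with GAL4-UAS multiplexed reporter units expressing chimeric NR-Gal4 proteins; reporter mRNA measured 24 h after dosing by RT-PCR, FAM labeling, HpaI digestion and capillary electrophoresis. Gain-of-signal relative to DMSO; 3 nM 6-alpha-fluorotestosterone present.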
# [8] = tested on: zebrafish Estrogen Receptor (ESR2B), gene 317733; assay: ATG_zfER2b_XSP1: Attagene TRANS-FACTORIAL Multi-Species (XSP1) HepG2 Assay for zebrafish Estrogen Receptor (ESR2B) (AID 2283773)
# Procedure, shortened: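 HepG2 cells transiently transfected with multiple GAL4-UAS reporter units expressing chimeric zebrafish ER2b-Gal4; 24 h chemical exposure with 3 nM 6-alpha-fluorotestosterone present. Reporter mRNA measured by RT-PCR and capillary electrophoresis; gain of signal fitted versus DMSO.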
# [9] = ACEA_AR_antagonist_AUC_viability: ACEA Biosciences xCELLigence Real-Time Cell Analysis on Androgen Receptor Antagonism for Viability (AID 2283776);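 note: 22Rv1 human prostate cancer cells growing on impedance electrode plates; area under impedance growth curve at 80 h after dosing as viability; hits lower the growth signal relative to DMSO meaning cytotoxicity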
# Procedure, shortened: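 Real-time electrical impedance tracks 22Rv1 proliferation after continuous compound exposure (top 100 uM final, 1:4 steps, 8 concentrations). The 80 h area-under-curve serves as the cytotoxicity readout relative to DMSO.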
# [10] = target: Estrogen receptor (Homo sapiens) (UniProt P03372); assay: ATG_hERa_XSP1: Attagene TRANS-FACTORIAL Multi-Species (XSP1) HepG2 Assay for human Estrogen Receptor (ESR1) (AID 2283780)
# Procedure, shortened: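 HepG2 cells transiently transfected with GAL4-UAS reporter units and chimeric NR-Gal4 constructs; 24 h after dosing, reporter mRNA quantified by RT-PCR and capillary electrophoresis. Medium contained 3 nM 6-alpha-fluorotestosterone; activity fitted as gain-of-signal versus DMSO.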
smiles,measurement,setting,value
N#Cc1ccc(C2CCCc3cncn32)cc1 (centres undefined),outcome,[1],inactive
CN(C)CCCN(C)CCCN(C)C,outcome,[1],inactive
CCN(CC)CCOc1ccc(C(=C(Cl)c2ccccc2)c2ccccc2)cc1,outcome,[2],inactive
same,outcome,[3],inactive
same,AC50,[4],inconclusive: 7.68 nM
same,AC50,[5],inconclusive: 7.68 nM
same,AC50,[6],inconclusive: 50.2 nM
C#C[C@]1(O)CC[C@H]2[C@@H]3CCC4=CC(=O)CC[C@@H]4[C@H]3CC[C@@]21CC,AC50,[2],active: 1.12 nM and active: 0.357 nM
same,AC50,[3],inconclusive: 0.816 nM
same,outcome,[7],inactive
same,AC50,[1],inconclusive: 0.406 nM
same,AC50,[6],active: 404 nM
same,outcome,[6],inactive
C[C@]12CC[C@H]3C(=CCc4cc(O)ccc43)[C@@H]1CCC2=O,AC50,[2],inconclusive: 241 nM
same,AC50,[3],active: 23.1 nM
same,AC50,[1],inconclusive: 13.8 nM
same,AC50,[4],active: 20.2 nM
CCCc1cc(=O)[nH]c(=S)[nH]1,AC50,[1],inconclusive: 1450 nM
O=[N+]([O-])C(CO)(CO)CO,AC50,[1],inconclusive: 50000 nM
CC(=O)[C@H]1[C@H](C#N)C[C@H]2[C@@H]3CC=C4C[C@@H](O)CC[C@]4(C)[C@H]3CC[C@@]21C,AC50,[1],inconclusive: 18100 nM
Cc1c2ccccc2c(C)c2c1ccc1ccccc12,AC50,[2],inconclusive: 22700 nM
CC1(C)C(C=C(Cl)Cl)C1C(=O)OCc1cccc(Oc2ccccc2)c1 (centres undefined),outcome,[3],inactive
same,outcome,[6],inactive
CC(C)C(=O)Nc1ccc([N+](=O)[O-])c(C(F)(F)F)c1,outcome,[2],inactive
same,AC50,[3],inconclusive: 462 nM
same,outcome,[8],inactive
same,AC50,[7],inconclusive: 100000 nM
same,AC50,[9],inconclusive: 1740 nM
same,outcome,[5],inactive
CC(CCC(=O)O)(c1ccc(O)cc1)c1ccc(O)cc1,AC50,[1],inconclusive: 27700 nM
CC(=O)OCCOC(C)=O,AC50,[1],inconclusive: 124 nM
CCCCCCCOC(=O)c1ccc(O)cc1,AC50,[1],inconclusive: 4200 nM
CC(C)(c1ccc(O)cc1)c1ccc(O)cc1,AC50,[2],inconclusive: 184 nM
same,AC50,[3],active: 1260 nM
same,AC50,[4],active: 163 nM
CCCCc1ccc(Cl)cc1,outcome,[1],inactive
C[C@@H]1C[C@H]2[C@@H]3CCC4=CC(=O)C=C[C@]4(C)[C@@]3(F)[C@@H](O)C[C@]2(C)[C@@]1(O)C(=O)COP(=O)(O)O,AC50,[1],inconclusive: 22.3 nM
CCCCCC(=O)O[C@]1(C(C)=O)CC[C@H]2[C@@H]3CCC4=CC(=O)CC[C@]4(C)[C@H]3CC[C@@]21C,AC50,[1],inconclusive: 16600 nM
C[C@]12CC[C@@H]3c4ccc(O)cc4CC[C@H]3[C@@H]1CC[C@H]2O,AC50,[1],active: 90700 nM
COCCO,AC50,[1],inconclusive: 105 nM
OCCOCCOCCOCCO,outcome,[1],inactive
CC(O)CNCC(C)O (centres undefined),AC50,[1],inconclusive: 3300 nM
CCCCCCCCC(=O)O,outcome,[1],inactive
O=P(OC(CCl)CCl)(OC(CCl)CCl)OC(CCl)CCl,outcome,[2],inactive
same,outcome,[5],inactive
O=C(c1ccc(O)cc1O)c1ccc(O)cc1O,AC50,[2],inconclusive: 592 nM
same,AC50,[3],active: 1380 nM
same,AC50,[1],inconclusive: 9.2 nM
NCCN,outcome,[1],inactive
OC12N=C(c3ccccc3)SC1Cc1cc(Cl)ccc12 (centres undefined),AC50,[1],active: 83300 nM
Cc1ccc(C(C)c2ccc(C)c(C)c2)cc1C,outcome,[1],inactive
O=C1CCCCC1,outcome,[1],inactive
CC(=O)S[C@@H]1CC2=CC(=O)CC[C@]2(C)[C@H]2CC[C@@]3(C)[C@@H](CC[C@@]34CCC(=O)O4)[C@H]12,outcome,[2],inactive
same,AC50,[7],active: 48600 nM
same,outcome,[10],inactive
O=C(c1ccccc1)c1ccc(O)cc1O,outcome,[2],inactive
same,AC50,[6],active: 1550 nM
same,AC50,[10],active: 3150 nM
CC(C)CCCCCCc1ccc(O)cc1,AC50,[2],inconclusive: 10000 nM
same,outcome,[5],inactive
O=C1c2ccccc2C(=O)N1SC1CCCCC1,AC50,[1],inconclusive: 159 nM
CCC(C)(C)C1CCC(O)CC1 (centres undefined),outcome,[2],inactive
same,outcome,[9],inactive
same,outcome,[5],inactive
COc1ccc(S(=O)(=O)N2C(=O)[C@@](c3ccccc3OC)(N3C[C@H](O)C[C@H]3C(=O)N(C)C)c3cc(Cl)ccc32)c(OC)c1,AC50,[1],active: 20300 nM
C=C[C@@]1(C)CC(=O)[C@]2(O)[C@@]3(C)[C@@H](O)CCC(C)(C)[C@@H]3[C@H](O)[C@H](OC(C)=O)[C@@]2(C)O1,AC50,[1],active: 6780 nM
C[C@]12C[C@H](O)[C@H]3[C@@H](CCC4=CC(=O)CC[C@@]43C)[C@@H]1CC[C@@H]2C(=O)CO,AC50,[1],inconclusive: 98.1 nM
O=C(O)/C=C/c1ccccc1,AC50,[9],inconclusive: 104 nM
CN(C)C(=O)C1(N2CCCCC2)CCN(CC[C@@]2(c3ccc(Cl)c(Cl)c3)CN(C(=O)c3ccccc3)CCO2)CC1,AC50,[9],active: 11500 nM
